# Data from the supplement of paper PMC9254222.
# In all, about 1,100 compounds were measured (“Wnt reporter firefly/Renilla luciferase ratio relative to plate median”: median about 1.1, highest 2% from about 1.6 on). The list shows a part of the results, in another mix than the full data.
# Tested on: HEK293T (UBE3A T485A transfected, BAR Wnt reporter)
# Assay: Wnt reporter firefly/Renilla luciferase ratio relative to plate median (fold (linear ratio)); higher = more Wnt/beta-catenin reporter activation
# Settings: 24 h
# Outline: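 Using Fugene 6, HEK293T cells in white 384-well plates (4500 cells/well; DMEM, 10% FBS, 37°C, 5% CO2) were transfected with a BAR firefly luciferase Wnt reporter, TK-Renilla and an expression plasmid. After four hours, robots dosed the chemicals at 0.01–100 uM, and a Dual-Glo luciferase readout followed 24 h later. Per-plate median-centred firefly/Renilla ratios gave Wnt activity, while per-plate median-centred raw Renilla signals gave cell health. Four biological replicates were averaged.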
Structure (SMILES),Wnt reporter firefly/Renilla luciferase ratio (concentration: 100 uM),Wnt reporter firefly/Renilla luciferase ratio (concentration: 0.1 uM),Wnt reporter firefly/Renilla luciferase ratio (concentration: 1 uM),Wnt reporter firefly/Renilla luciferase ratio (concentration: 10 uM),Wnt reporter firefly/Renilla luciferase ratio (concentration: 0.01 uM)
CCO[Si](CCCNC(N)=O)(OCC)OCC [1-[3-(Triethoxysilyl)propyl]urea],1.66,–,–,–,–
N=C(N)c1ccc(OCCCCCOc2ccc(C(=N)N)cc2)cc1.O=S(=O)(O)CCO.O=S(=O)(O)CCO [Pentamidine isethionate],1.49,1.2,0.887,0.127,–
CCOC(=O)CCC(=O)OCC [Diethyl butanedioate],1.29,1.07,1.1,1.11,–
Cc1occc(=O)c1O [Maltol],1.22,1.14,1.02,1.04,–
O=C([O-])Cc1ccccc1Nc1c(Cl)cccc1Cl.[Na+] [Diclofenac sodium],0.35,1.17,0.928,1.12,–
O=C(Oc1ccccc1)c1cccc(C(=O)Oc2ccccc2)c1 [Diphenyl isophthalate],1.54,0.923,1.1,1.05,–
CC(C)CCCCCCOC(=O)c1ccc(C(=O)OCCCCCCC(C)C)c(C(=O)OCCCCCCC(C)C)c1 [Triisononyl trimellitate],1.34,1.08,0.919,1.18,–
CC(C)CCCCCCCOC(=O)CCCCC(=O)OCCCCCCCC(C)C [Diisodecyl hexanedioate],1.27,0.994,1.02,1.21,–
NCCO [Ethanolamine],2.04,–,–,–,–
C[C@@H](Oc1ccc(CNC(=O)c2cccnc2Oc2ccc3c(c2)OCO3)c(F)c1)C(=O)O,1.33,1.14,1.12,1.13,–
Cc1c(C)c2c(c(C)c1O)CCC(C)(COc1ccc(CC3SC(=O)NC3=O)cc1)O2 (stereo unspecified) [Troglitazone],0.519,0.992,0.916,0.805,–
CCCCCCCCCCC [Undecane],1.43,1.08,1.09,1.2,–
CC(N)=O [Acetamide],1.54,1.12,0.966,1.1,–
CC(=O)OCC(COC(C)=O)OC(C)=O [Triacetin],1.39,1.37,1.12,0.909,–
"CC1(C)C(=O)NC(=O)N1CO [1-(Hydroxymethyl)-5,5-dimethylhydantoin]",1.59,1.14,0.992,1.12,–
C=CCc1ccc(O)c(OC)c1 [Eugenol],1.55,1.02,1.13,1.19,–
"CN(C)CCCN(C)CCCN(C)C [2,6,10-Trimethyl-2,6,10-triazaundecane]",1.28,0.896,1.18,1.16,–
Oc1ccc2c(c1)-c1ccccc1C2 [3-Hydroxyfluorene],0.367,1.16,1.43,1.3,–
CCCCCCCCN(C)CCCCCCCC [N-Methyldioctylamine],0.896,1.16,1,0.755,–
CCCCOC(=O)C(C)Oc1ccc(Oc2ccc(C(F)(F)F)cn2)cc1 (stereo unspecified) [Fluazifop-butyl],1.13,1.71,1.15,1.54,1.15
CCCCCCC(C)OC(=O)COc1nc(F)c(Cl)c(N)c1Cl (stereo unspecified) [Fluroxypyr-meptyl],1.2,0.966,1.05,1.01,1.21
CCN(CC)C(=O)c1cc(S(=O)(=O)Cc2ccccc2)c(N2CCC(c3ccccc3)CC2)cc1N(CC)CCN(C)C.O=C(O)C(F)(F)F [HMR1171 trifluoroacetate (1:1)],0.497,1.09,0.921,1.06,–

Structure (SMILES),Wnt reporter firefly/Renilla luciferase ratio (concentration: 100 uM),Wnt reporter firefly/Renilla luciferase ratio (concentration: 0.1 uM),Wnt reporter firefly/Renilla luciferase ratio (concentration: 1 uM),Wnt reporter firefly/Renilla luciferase ratio (concentration: 10 uM),Wnt reporter firefly/Renilla luciferase ratio (concentration: 0.01 uM)
"c1cc(-c2ccncc2)ccn1 [4,4'-Bipyridine]",1.2,1.07,1.26,1.19,–
OB(O)O [Boric acid],1.26,1.15,1.06,1.24,1.27
O=C(NS(=O)(=O)/C=C/c1cccs1)c1ccc(F)cc1Br,0.251,1.13,1.12,0.456,–
NC(CCCP(=O)(O)O)C(=O)O (racemic),1.69,1.19,0.925,0.918,1.35
C/C=C/C=C/C(=O)O [Sorbic acid],0.845,1.17,0.871,0.819,–
CCCCCCCCC(=O)O [Nonanoic acid],1.18,1.38,1.02,1.21,–
CC[C@H]1OC(=O)[C@H](C)[C@@H](O[C@H]2C[C@@](C)(OC)[C@@H](O)[C@H](C)O2)[C@H](C)[C@@H](O[C@@H]2O[C@H](C)C[C@H](N(C)C)[C@H]2O)[C@](C)(O)C[C@@H](C)C(=O)[C@H](C)[C@@H](O)[C@]1(C)O [Erythromycin],0.664,1.02,0.992,0.807,–
CN1CCCC1=O [N-Methyl-2-pyrrolidone],1.03,1.07,0.982,1.13,–
O=C(c1ccccc1)c1ccccc1 [Benzophenone],1.04,0.976,0.98,1.01,–
O=C(O)Cn1c(=O)n(Cc2ccc(Br)cc2F)c(=O)c2ccc(Cl)cc21 [Zenarestat],1.43,0.915,0.885,1.21,–
C#C[C@]1(O)CC[C@H]2[C@@H]3CCc4cc(O)ccc4[C@H]3CC[C@@]21C [17alpha-Ethinylestradiol],0.42,1.06,0.888,1.12,–
CCOCCO [2-Ethoxyethanol],1.25,1.04,1.01,1.18,–
Nc1nc(Cl)nc2c1ncn2[C@H]1C[C@H](O)[C@@H](CO)O1 [Cladribine],–,0.945,0.885,0.18,–
O=C(Nc1ccc(Cl)cc1)Nc1ccc(Cl)c(Cl)c1 [Triclocarban],–,0.857,1.02,0.454,–
O=C(CCCCCCC(=O)Nc1ccccc1)NO [Vorinostat (SAHA)],–,–,–,3.08,–
c1ccc2ncccc2c1 [Quinoline],1.26,0.857,1.13,1.43,–
CCCCCCCCCCCCCO [1-Tridecanol],1.26,1,1.14,1.01,–
Cc1occc1C(=O)Nc1ccc(C(=O)N2CCC(F)(F)/C(=C\C(=O)N3CCC(N4CCCCC4)CC3)c3ccccc32)cc1.Cc1occc1C(=O)Nc1ccc(C(=O)N2CCC(F)(F)/C(=C\C(=O)N3CCC(N4CCCCC4)CC3)c3ccccc32)cc1.O=C(O)/C=C/C(=O)O,–,1.22,0.982,0.94,–
"Cc1cc(C)c(O)c(C)c1 [2,4,6-Trimethylphenol]",1.53,0.78,1,1.02,–
Cc1nc(-c2ccccn2)ncc1C(=O)Nn1cc(C)c2cc(F)ccc21,1.13,1.12,1.2,1.01,–
CCCC(=O)OCC [Ethyl butyrate],0.983,0.661,0.955,1,–
N#CSCSc1nc2ccccc2s1 [2-(Thiocyanomethylthio)benzothiazole],–,0.88,1.09,1.06,0.895

Structure (SMILES),Wnt reporter firefly/Renilla luciferase ratio (concentration: 100 uM),Wnt reporter firefly/Renilla luciferase ratio (concentration: 0.1 uM),Wnt reporter firefly/Renilla luciferase ratio (concentration: 1 uM),Wnt reporter firefly/Renilla luciferase ratio (concentration: 10 uM),Wnt reporter firefly/Renilla luciferase ratio (concentration: 0.01 uM)
Oc1cc2ccccc2c2ccccc12 [9-Phenanthrol],–,0.998,0.862,1.05,–
Oc1ccc2ccccc2c1/N=N/c1ccccc1 [C.I. Solvent Yellow 14],1.37,1.12,1.2,1.14,–
C#C[C@]1(O)CC[C@H]2[C@@H]3CCC4=CC(=O)CC[C@@H]4[C@H]3CC[C@@]21C [Norethindrone],0.505,1.16,1.08,1.09,–
COc1ccc([N+](=O)[O-])cc1N [2-Methoxy-5-nitroaniline],1.14,0.964,0.988,1.04,–
CN(C)[C@@H]1C(O)=C(C(N)=O)C(=O)[C@@]2(O)C(O)=C3C(=O)c4c(O)cccc4[C@@](C)(O)[C@H]3[C@H](O)[C@@H]12.O.O [Oxytetracycline dihydrate],0.951,2.3,1.22,1.34,1.55
C1CNCCN1 [Piperazine],1.38,1.01,1.27,1.51,–
Cc1cc2c(cc1C(F)(F)F)N(C(=O)Nc1ccc(Oc3cccnc3C)nc1)CC2.Cl,0.554,1.03,1.4,0.768,–
CC(C)=CCC/C(C)=C/CO [Geraniol],1.75,1.1,1.26,1.15,–
O=C(O)Cc1cc(I)c(Oc2cc(I)c(O)c(I)c2)c(I)c1 [Tetrac],1.49,1.24,0.987,1.02,–
CC(=O)S[C@@H]1CC2=CC(=O)CC[C@]2(C)[C@H]2CC[C@@]3(C)[C@@H](CC[C@@]34CCC(=O)O4)[C@H]12 [Spironolactone],0.0625,0.996,1.16,0.759,–
O=C(Nc1ccc([N+](=O)[O-])cc1Cl)c1cc(Cl)ccc1O [Niclosamide],–,1.01,0.197,–,0.996
CCCCCCCCCCCCCCCC [Hexadecane],1.33,1.02,1.02,1.19,–
CC[C@H](c1ccc(O)cc1)[C@@H](CC)c1ccc(O)cc1 [meso-Hexestrol],0.0535,0.858,1.05,0.711,–
Cc1ncc(CO)c(CO)c1O [Pyridoxine],0.979,0.962,0.966,1.34,–
Cl.Nc1ccn([C@@H]2O[C@H](CO)[C@@H](O)[C@@H]2O)c(=O)n1 [Cytarabine hydrochloride],0.125,1.1,0.941,0.171,–
CCCCCOC(C)=O [Pentyl acetate],1.61,–,–,–,–
Cl.Cn1c(=O)cc(Oc2ccc(F)cc2F)c2cnc(NCC(C)(C)O)nc21,0.361,0.965,0.743,0.663,–
CCN(CC)CCNc1ccc(CNC=O)c2sc3ccc(OC)cc3c(=O)c12,–,1.79,0.887,0.373,–
CC(=O)OC/C=C(\C)CCC=C(C)C [Geranyl acetate],1.23,1.1,0.97,1.27,–
COCC(C)O (stereo unspecified) [1-Methoxy-2-propanol],1.13,0.916,1.03,0.962,–
COc1ccc(C(=O)Nc2nc3ccccc3c(NCc3ccccc3)c2C#N)cc1,0.357,1.27,1.14,0.744,–
CNC(C)=O [N-Methylacetamide],1.18,1.35,0.972,1.2,–

# 3 compounds drawn at random from the list so far, as already listed:
Structure (SMILES),Wnt reporter firefly/Renilla luciferase ratio (concentration: 100 uM),Wnt reporter firefly/Renilla luciferase ratio (concentration: 0.1 uM),Wnt reporter firefly/Renilla luciferase ratio (concentration: 1 uM),Wnt reporter firefly/Renilla luciferase ratio (concentration: 10 uM),Wnt reporter firefly/Renilla luciferase ratio (concentration: 0.01 uM)
Cl.Cn1c(=O)cc(Oc2ccc(F)cc2F)c2cnc(NCC(C)(C)O)nc21,0.361,0.965,0.743,0.663,–
COc1ccc([N+](=O)[O-])cc1N [2-Methoxy-5-nitroaniline],1.14,0.964,0.988,1.04,–
O=C(O)Cc1cc(I)c(Oc2cc(I)c(O)c(I)c2)c(I)c1 [Tetrac],1.49,1.24,0.987,1.02,–
